This passage reports binding results from paper PMC6002264.

The chains behind the UniProt entries cited, without tags or fusion partners. Residues count along the entry.
UniProt P70211, residues 26-1447: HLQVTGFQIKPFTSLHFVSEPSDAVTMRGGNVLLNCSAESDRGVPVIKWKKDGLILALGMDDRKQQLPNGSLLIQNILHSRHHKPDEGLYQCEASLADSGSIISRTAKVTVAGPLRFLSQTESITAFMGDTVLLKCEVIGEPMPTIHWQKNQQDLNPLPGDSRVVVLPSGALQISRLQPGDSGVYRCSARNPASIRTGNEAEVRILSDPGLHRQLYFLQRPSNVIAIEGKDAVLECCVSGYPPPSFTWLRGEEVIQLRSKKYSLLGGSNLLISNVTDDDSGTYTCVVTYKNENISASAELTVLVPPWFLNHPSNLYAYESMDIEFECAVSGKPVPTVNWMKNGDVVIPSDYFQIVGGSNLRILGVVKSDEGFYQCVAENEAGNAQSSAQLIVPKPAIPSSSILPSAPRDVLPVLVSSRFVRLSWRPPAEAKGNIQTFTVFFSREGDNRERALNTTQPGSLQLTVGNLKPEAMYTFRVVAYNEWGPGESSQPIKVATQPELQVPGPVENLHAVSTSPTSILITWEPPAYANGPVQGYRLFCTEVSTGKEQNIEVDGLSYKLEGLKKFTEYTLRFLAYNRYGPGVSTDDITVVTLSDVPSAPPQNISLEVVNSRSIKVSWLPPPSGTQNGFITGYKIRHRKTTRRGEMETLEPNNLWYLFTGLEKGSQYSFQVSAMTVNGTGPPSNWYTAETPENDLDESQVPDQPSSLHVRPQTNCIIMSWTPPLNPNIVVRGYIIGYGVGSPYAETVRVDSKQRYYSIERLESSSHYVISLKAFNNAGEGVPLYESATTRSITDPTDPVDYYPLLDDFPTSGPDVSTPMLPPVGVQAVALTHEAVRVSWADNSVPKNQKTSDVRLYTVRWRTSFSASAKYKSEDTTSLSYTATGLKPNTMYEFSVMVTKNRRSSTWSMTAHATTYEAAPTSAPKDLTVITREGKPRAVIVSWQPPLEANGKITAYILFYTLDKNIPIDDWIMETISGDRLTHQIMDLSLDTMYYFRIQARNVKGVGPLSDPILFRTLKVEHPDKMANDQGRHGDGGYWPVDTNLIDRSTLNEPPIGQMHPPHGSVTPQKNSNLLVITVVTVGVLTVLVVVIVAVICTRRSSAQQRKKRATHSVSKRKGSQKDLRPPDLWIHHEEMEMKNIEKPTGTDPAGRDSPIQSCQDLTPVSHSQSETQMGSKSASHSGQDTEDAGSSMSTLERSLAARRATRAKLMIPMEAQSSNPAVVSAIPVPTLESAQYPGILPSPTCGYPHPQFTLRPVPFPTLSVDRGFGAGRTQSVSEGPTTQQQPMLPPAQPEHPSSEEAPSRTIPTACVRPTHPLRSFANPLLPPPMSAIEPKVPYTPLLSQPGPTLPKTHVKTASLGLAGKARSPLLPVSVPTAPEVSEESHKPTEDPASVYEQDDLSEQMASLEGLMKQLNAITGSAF

These are yes or no findings as the source states them, for the method shown. Binding seen in cells or lysates may run through a third protein. Some results given as binding are weak or reduced against the parent protein; the word gives no strength.

In this assay the target is T1, TRIM67 (endogenous, mouse) (mouse (endogenous in embryonic cortex)) (UniProt Q505D9).
T1 sequence: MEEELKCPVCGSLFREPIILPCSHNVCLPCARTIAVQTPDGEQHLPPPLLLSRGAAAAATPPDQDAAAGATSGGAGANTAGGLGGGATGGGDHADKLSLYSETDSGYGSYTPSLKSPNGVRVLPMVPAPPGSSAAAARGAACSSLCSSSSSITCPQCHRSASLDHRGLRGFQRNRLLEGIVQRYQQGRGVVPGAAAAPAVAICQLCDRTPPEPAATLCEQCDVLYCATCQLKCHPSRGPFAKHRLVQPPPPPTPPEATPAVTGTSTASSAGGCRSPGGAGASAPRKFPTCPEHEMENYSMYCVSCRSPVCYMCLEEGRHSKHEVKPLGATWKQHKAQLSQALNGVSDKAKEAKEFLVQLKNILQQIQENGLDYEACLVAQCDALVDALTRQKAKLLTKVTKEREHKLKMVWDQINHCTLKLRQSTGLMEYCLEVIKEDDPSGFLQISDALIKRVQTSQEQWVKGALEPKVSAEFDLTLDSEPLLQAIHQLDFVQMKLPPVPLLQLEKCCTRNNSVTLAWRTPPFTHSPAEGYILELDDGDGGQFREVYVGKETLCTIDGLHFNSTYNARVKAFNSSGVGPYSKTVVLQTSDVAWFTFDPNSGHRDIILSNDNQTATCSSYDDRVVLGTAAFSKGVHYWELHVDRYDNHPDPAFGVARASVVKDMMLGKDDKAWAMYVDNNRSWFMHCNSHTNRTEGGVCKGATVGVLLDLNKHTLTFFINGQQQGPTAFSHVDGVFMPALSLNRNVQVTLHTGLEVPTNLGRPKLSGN
Briefly: co-IP; immunoprecipitation with the TRIM67 polyclonal antibody from wild-type mouse embryonic cortical / brain lysate; Trim67-/- lysate as control; blots probed for TRIM9, TRIM67 and DCC.

With “DCC (endogenous, mouse) (from UniProt P70211 26-1447) (receptor)”, the binding result is listed as “binds”.
